{"source": "paper PMC12603114", "binders": {"B1": {"name": "Signal transducer and activator of transcription 1 (STAT1), from plasmid, P42224 1-750 (protein)", "chain": "MSQWYELQQLDSKFLEQVHQLYDDSFPMEIRQYLAQWLEKQDWEHAANDVSFATIRFHDLLSQLDDQYSRFSLENNFLLQHNIRKSKRNLQDNFQEDPIQMSMIIYSCLKEERKILENAQRFNQAQSGNIQSTVMLDKQKELDSKVRNVKDKVMCIEHEIKSLEDLQDEYDFKCKTLQNREHETNGVAKSDQKQEQLLLKKMYLMLDNKRKEVVHKIIELLNVTELTQNALINDELVEWKRRQQSACIGGPPNACLDQLQNWFTIVAESLQQVRQQLKKLEELEQKYTYEHDPITKNKQVLWDRTFSLFQQLIQSSFVVERQPCMPTHPQRPLVLKTGVQFTVKLRLLVKLQELNYNLKVKVLFDKDVNERNTVKGFRKFNILGTHTKVMNMEESTNGSLAAEFRHLQLKEQKNAGTRTNEGPLIVTEELHSLSFETQLCQPGLVIDLETTSLPVVVISNVSQLPSGWASILWYNMLVAEPRNLSFFLTPPCARWAQLSEVLSWQFSSVTKRGLNVDQLNMLGEKLLGPNASPDGLIPWTRFCKENINDKNFPFWLWIESILELIKKHLLPLWNDGCIMGFISKERERALLKDQQPGTFLLRFSESSREGAITFTWVERSQNGGEPDFHAVEPYTKKELSAVTFPDIIRNYKVMAAENIPENPLKYLYPNIDKDHAFGKYYSRPKEAPEPMELDGPKGTGYIKTELISVSEVHPSRLQTTDNLLPMSPEEFDEVSRIVGSVEFDSMMNTV"}}, "biological_target": "T1, Signal transducer and activator of transcription 1 (STAT1), from plasmid, P42224", "T1 chain": "B1 chain", "assay": "co-IP; HEK293T cells transfected with the indicated plasmids, treated with IFNγ (100 ng/mL) or IFNβ (100 ng/mL); precipitated with S-tag beads at 4 °C; with or without co-expressed PTIR1", "conditions": "remark: other sources report otherwise", "note": "No constants are given. Whether binding was seen depends on the method and setting. Binding seen in cells or lysates may run through a third protein. Some results given as binding are weak or reduced against the parent protein; the word gives no strength.", "data": [{"binder": "B1", "values": [{"measurement": "binding", "value": "binds"}]}]}
